Data reported in article PMC2951368.
These are yes or no findings as the source states them, for the method shown. In cells and extracts the contact can be indirect. Some results given as binding are weak or reduced against the parent protein; the word gives no strength. Tags and fused reporters may be left off the sequences shown.

Tests used:
[1] = target: T1, FLAG-SR-BI (full-length human SR-BI with N-terminal FLAG tag) (human) (UniProt Q8WTV0); experiment: co-IP; Huh-7 cells co-transfected; immunoprecipitation of FLAG-tagged protein with anti-FLAG; blot for co-immunoprecipitated Myc-tagged protein
T1 sequence: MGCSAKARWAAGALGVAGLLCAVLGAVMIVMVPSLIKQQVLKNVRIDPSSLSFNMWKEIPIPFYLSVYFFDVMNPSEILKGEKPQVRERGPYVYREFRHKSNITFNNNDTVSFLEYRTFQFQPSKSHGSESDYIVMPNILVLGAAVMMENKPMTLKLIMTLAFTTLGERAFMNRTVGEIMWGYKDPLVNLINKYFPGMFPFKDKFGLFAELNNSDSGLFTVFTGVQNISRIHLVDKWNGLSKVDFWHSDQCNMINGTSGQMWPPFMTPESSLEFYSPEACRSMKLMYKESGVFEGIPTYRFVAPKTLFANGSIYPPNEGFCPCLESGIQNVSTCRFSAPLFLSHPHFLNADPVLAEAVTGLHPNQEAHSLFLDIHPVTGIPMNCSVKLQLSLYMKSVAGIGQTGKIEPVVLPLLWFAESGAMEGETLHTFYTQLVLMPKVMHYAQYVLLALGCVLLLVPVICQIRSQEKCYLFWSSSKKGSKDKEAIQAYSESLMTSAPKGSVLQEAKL

[2] = target: T1, FLAG-SR-BI (full-length human SR-BI with N-terminal FLAG tag) (human); experiment: co-IP; 293T cells co-transfected; lysis in NP-40 buffer (1% NP-40, 150 mM NaCl, 50 mM Tris pH 8.0); immunoprecipitation of FLAG-tagged protein with anti-FLAG mAb and protein A/G agarose at 4°C; blot with anti-Myc or anti-GFP
[3] = target: T2, FLAG-SR-BIΔ509 (SR-BI lacking the final carboxy-terminal residue, N-terminal FLAG tag) (human) (UniProt Q8WTV0); experiment: as above
T2 sequence: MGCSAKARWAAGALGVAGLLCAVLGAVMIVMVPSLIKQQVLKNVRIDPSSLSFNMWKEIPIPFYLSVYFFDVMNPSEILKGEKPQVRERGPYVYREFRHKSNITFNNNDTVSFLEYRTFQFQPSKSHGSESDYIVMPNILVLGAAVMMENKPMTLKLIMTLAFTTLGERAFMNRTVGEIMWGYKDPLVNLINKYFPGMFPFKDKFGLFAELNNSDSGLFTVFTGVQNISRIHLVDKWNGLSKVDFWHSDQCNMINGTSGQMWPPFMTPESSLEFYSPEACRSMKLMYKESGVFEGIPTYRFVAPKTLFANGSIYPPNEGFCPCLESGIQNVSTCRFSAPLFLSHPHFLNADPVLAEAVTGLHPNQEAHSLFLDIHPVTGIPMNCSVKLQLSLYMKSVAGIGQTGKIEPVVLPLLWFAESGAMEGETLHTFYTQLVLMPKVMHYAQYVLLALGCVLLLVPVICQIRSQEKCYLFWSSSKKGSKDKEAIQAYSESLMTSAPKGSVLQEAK

Measured: binding

B1: mycSR-BIΔ509 (SR-BI lacking the final carboxy-terminal residue, N-terminal Myc tag) (receptor, UniProt Q8WTV0-2 1-508)
chain: T2 sequence
binds: all assays above
